Here are results for one substance from article PMC11434109, “VIK‐Mediated Auxin Signaling Regulates Lateral Root Development in Arabidopsis” (Advanced Science, 2024).

Amino acid sequences for entries named in this document (tags omitted). A change or cut given only in a name is not applied to a line headed by its entry.
UniProt P43298: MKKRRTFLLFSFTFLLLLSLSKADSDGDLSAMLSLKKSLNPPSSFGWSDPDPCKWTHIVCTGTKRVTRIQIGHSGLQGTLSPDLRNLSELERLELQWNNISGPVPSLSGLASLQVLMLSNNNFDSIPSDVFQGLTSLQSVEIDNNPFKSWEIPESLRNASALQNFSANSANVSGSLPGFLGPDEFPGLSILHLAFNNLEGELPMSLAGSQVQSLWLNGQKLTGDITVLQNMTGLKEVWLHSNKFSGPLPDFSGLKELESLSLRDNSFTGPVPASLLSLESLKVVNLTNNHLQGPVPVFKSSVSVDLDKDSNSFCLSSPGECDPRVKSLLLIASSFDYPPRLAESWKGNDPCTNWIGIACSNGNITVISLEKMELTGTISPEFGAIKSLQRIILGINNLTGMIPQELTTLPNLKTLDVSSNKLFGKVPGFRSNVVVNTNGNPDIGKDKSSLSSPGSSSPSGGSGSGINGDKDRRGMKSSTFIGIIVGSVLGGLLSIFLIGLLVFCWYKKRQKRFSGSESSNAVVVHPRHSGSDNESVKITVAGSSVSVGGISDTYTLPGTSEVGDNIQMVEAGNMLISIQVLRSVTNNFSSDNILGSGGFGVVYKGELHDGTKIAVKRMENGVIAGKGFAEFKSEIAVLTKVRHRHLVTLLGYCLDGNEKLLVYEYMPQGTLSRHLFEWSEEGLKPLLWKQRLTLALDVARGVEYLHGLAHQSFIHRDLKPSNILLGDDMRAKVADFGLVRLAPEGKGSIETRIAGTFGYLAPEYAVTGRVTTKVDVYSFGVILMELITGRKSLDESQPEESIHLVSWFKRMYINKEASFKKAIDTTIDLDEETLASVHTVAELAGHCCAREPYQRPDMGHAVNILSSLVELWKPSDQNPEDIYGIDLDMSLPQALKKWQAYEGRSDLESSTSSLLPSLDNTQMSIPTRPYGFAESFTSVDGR

No constants are given. Whether binding was seen depends on the method and setting. A result given as binding can be weak or reduced; the word gives no strength. Tags and fused reporters may be left off the sequences shown.

The target in the assay is T1, VH1-… Kinase (VIK) in pGBKT7 (BD-VIK) (Arabidopsis) (UniProt Q9XI87).
T1 sequence: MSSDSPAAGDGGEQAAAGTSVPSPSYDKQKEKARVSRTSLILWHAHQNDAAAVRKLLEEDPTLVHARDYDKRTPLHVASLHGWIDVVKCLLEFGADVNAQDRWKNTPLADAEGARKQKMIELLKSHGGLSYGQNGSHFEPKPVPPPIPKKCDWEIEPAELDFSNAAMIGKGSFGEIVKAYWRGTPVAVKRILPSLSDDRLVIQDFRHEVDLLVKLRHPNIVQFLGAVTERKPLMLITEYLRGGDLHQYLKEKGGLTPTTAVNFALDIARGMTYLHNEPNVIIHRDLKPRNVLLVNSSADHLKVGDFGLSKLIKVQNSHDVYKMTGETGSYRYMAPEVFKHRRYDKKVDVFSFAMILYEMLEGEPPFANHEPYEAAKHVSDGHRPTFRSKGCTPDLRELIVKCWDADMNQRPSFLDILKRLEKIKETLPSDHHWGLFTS
In words: two-hybrid; pGADT7 (AD) and pGBKT7 (BD) fusions in AH109 yeast; growth on SD/-Leu/-Trp/-His or SD/-Leu/-Trp/-His/-Ade; autoactivation inhibited by 3-AT (25 mM for VIK-ERF13).

As for “TMK1 kinase domain in pGADT7 (AD-TMK1 kinase domain) (from UniProt P43298) (domain or fragment)”, the binding result was “binds”.
